In assay [1] the test system is SARS-CoV-2 -1 PRF reporter mCherry-FSE-GFP(-1). Kind of assay: mCherry (red) intensity as percent of control; higher = higher upstream reporter expression. As to conditions: 10 µM; 24 h; HEK293T.
For assay [2] the test system is unchanged. Kind of assay: percent effect, decrease of GFP/mCherry ratio (-1 PRF reporter) relative to controls; higher = stronger frameshift inhibition. Conditions: 10 µM; 24 h; HEK293T.

Structures are written as SMILES. Values joined by “and” are separate entries in the source; they are usually repeats but may differ in a detail not shown here. Equal values may be shown once. Where a name gives a salt, the structure may show the parent alone. This is one part of the list. Repeats in this data set agree poorly, so a single value says little.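 HEK293T cells were given each compound shortly before transfection with a reporter in which red mCherry is followed by the SARS-CoV-2 frameshift element and then GFP in the −1 frame, so GFP appears only after frameshifting.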

In assay [1], `CC(=O)NC1C(O)CC(O)(C(=O)O)OC1C(O)C(O)CO` (stereo unspecified) had a mCherry of 123%. The percent effect in assay [2] was -1.45%.
The like results for `C[C@@H](O[C@H]1OCCN(Cc2n[nH]c(=O)[nH]2)[C@H]1c1ccc(F)cc1)c1cc(C(F)(F)F)cc(C(F)(F)F)c1` [Emend] were, in that order, 117% and -5.54%.
The molecule `Nc1ncnc(Nc2ccccc2)n1` [amanozine] gave a mCherry in assay [1] of 109%. For the same molecule, in assay [2], the percent effect was -1.63%.
For `Nc1c(CC(=O)O)cccc1C(=O)c1ccc(Br)cc1` [Xibrom], in assay [1], the mCherry amounted to 109%. In addition, the percent effect in assay [2] is -4.09%.
With `O=C(NC(Cc1cc(=O)[nH]c2ccccc12)C(=O)O)c1ccc(Cl)cc1` (stereo unspecified) [rebamipide], the mCherry in assay [1] was 105% and 97.9%. The percent effect in assay [2] was -4.32% and -1.54%.
On to `CN/C(=C\[N+](=O)[O-])NCCSCc1ccc(CN(C)C)o1` [Ranitidine·HCl], for which, in assay [1], the mCherry worked out at 95.4%. In addition, the percent effect in assay [2] is 0.437%.
The like results for `C[C@@H](c1ncncc1F)[C@](O)(Cn1cncn1)c1ccc(F)cc1F` [voriconazole] were, in that order, 90.6% and -2.94%.
For `CC1CCC(NC(=O)N(CCCl)N=O)CC1` (stereo unspecified) [semustine], the mCherry in assay [1] was 100%. Moreover, in assay [2], the percent effect was 0.384%.
For `CN(CC(=O)O)C(=N)N` [Creatine] the same measures were 109% and 0.458%.
Take `O=C(O)COCCN1CCN(C(c2ccccc2)c2ccc(Cl)cc2)CC1` (stereo unspecified) [cetirizine]: the mCherry in assay [1] was 91.6% and 113% and 88.9%. In addition, the percent effect in assay [2] is -1.98% and -0.372% and 2.12%.
In turn, `CC(C)[C@H](N)C(=O)OCCOCn1cnc2c(=O)nc(N)[nH]c21` [valaciclovir] displayed a mCherry in assay [1] of 84.9%. For the same molecule, the percent effect in assay [2] is -0.0831%.
The like results for `CCCCCCCCCCCC(=O)OC[C@@H](O)[C@H]1OC[C@H](O)[C@H]1O` [sorbitan laurate] were, in that order, 56.3% and -8.66%.
The like results for `CC(C)c1nnc(NS(=O)(=O)c2ccc(N)cc2)s1` [glyprothiazol] were, in that order, 88.1% and -1.34%.
